Data as given in paper PMC7819943, “Rice protein-binding microarrays: a tool to detect cis-acting elements near promoter regions in rice”.
The list shows a part of the results.

Protein sequences, listed by entry. Tags and fused reporters are not part of them.
UniProt Q0JBA9, entry or part of it: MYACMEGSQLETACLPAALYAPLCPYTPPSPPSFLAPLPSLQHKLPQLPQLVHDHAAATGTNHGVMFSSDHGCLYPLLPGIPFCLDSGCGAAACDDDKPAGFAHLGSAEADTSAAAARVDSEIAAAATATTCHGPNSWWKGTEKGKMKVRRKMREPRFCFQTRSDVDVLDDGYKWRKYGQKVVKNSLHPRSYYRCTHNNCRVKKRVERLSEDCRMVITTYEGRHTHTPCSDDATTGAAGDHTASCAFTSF

biological target: OsWRKY34 (Oryza sativa, UniProt Q0JBA9 1-250); assay: protein-binding microarray (RPBM); PBS, 2% BSA, 51.3 ng/ul salmon testes DNA, 50 uM zinc acetate, 200 nM TF, 25 C, 1 h; high values mean tight binding; conditions: protein: recombinant; tags: N-terminal polyhistidine and DsRed monomer fusion (pET32a); label: CyDye5-dUTP incorporated in the synthesized complementary strand; 3' TTTTT single-stranded linker to array surface; dsDNA, one strand shown
In short: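 In PBS with 2% BSA, salmon testes DNA and 50 µM zinc acetate, 200 nM protein was incubated on a custom Agilent array at 25 °C for 1 h and then washed off. The array had been made double-stranded by primer extension with Cy5-dUTP and blocked with 2% BSA. The proteins were transcription factors fused N-terminally to polyhistidine and DsRed, expressed in E. coli BL21-CodonPlus and purified on Ni–NTA. The binding signal is per-feature fluorescence intensity (arbitrary units) from an Axon 4000B scanner.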

Q: For “CTCACTTCCACTAATCACACTCTACAGTCTCACTCCTAGACGGAGTCACCTAGTGCAG”, which binding signal is on record?
A: 8950 fluorescence intensity (a.u.)

Q: How did the binding signal turn out when “TATCATCTCTTTGGTTTTTTTGTCTTTTCTAAATTATTTACGGAGTCACCTAGTGCAG” was run?
A: 10600 fluorescence intensity (a.u.)

Q: “GGACAAATATCTTTTCTACTGTTTGCTGGCTCTCTCTCTTCGGAGTCACCTAGTGCAG” was tested. Which binding signal did it give?
A: 8620 fluorescence intensity (a.u.)

Q: How did the binding signal turn out when “GCTCGGTTTATTTTCCTCCTCCAATCCCTTTCCGGCTAGCCGGAGTCACCTAGTGCAG” was run?
A: 8540 fluorescence intensity (a.u.)

Q: For “GAACCGTTGCCGTGCCGCCGCCGCCGCCATTGACGCCATGCGGAGTCACCTAGTGCAG”, which binding signal is on record?
A: 10100 fluorescence intensity (a.u.)

Q: Which binding signal does the source give for “GCTAACCAGTAACCACCCCTGCCGCCTCGCTTCCACTTCCCGGAGTCACCTAGTGCAG” here?
A: 9230 fluorescence intensity (a.u.)

Q: “CTACATGTTACATATTACGTCCATTTGAGTTCATTTTTTCCGGAGTCACCTAGTGCAG” was tested. Which binding signal did it give?
A: 14900 fluorescence intensity (a.u.)

Q: Which binding signal does the source give for “CCTCCCTCTCGCTTACGAACTCCGCTACCAACCGCTTCCTCGGAGTCACCTAGTGCAG” here?
A: 8690 fluorescence intensity (a.u.)

Q: “ACACCACCTCACACTTGCTCACCTAGACCATGTTCCTACTCGGAGTCACCTAGTGCAG” was tested. Which binding signal did it give?
A: 10700 fluorescence intensity (a.u.)

Q: For “GCCAGCCTCCTCCGCAGTCCGCACCCGCCGCCCGGCCTGACGGAGTCACCTAGTGCAG”, which binding signal is on record?
A: 8630 fluorescence intensity (a.u.)

Q: For “CGCGTCTCCATCCATCCATCCACCGCAATGACATTAACATCGGAGTCACCTAGTGCAG”, which binding signal is on record?
A: 9440 fluorescence intensity (a.u.)

Q: With “TCTCTCTCCTGTTGACCACCTGCAGATCGCCCGCGCGATGCGGAGTCACCTAGTGCAG” as the sequence, how does the binding signal read?
A: 8160 fluorescence intensity (a.u.)

Q: Which binding signal does the source give for “TCTGCATCACGGCCCTTATTCCCGTTGGGCATATCTTTTACGGAGTCACCTAGTGCAG” here?
A: 11500 fluorescence intensity (a.u.)

Q: How did the binding signal turn out when “GCTCGATTCTTCGCCTCCTCCGACGCCCCATCGTCGCGCCCGGAGTCACCTAGTGCAG” was run?
A: 8130 fluorescence intensity (a.u.)

Q: For “CCTCAAACACACTCTAATTTATATTTCACATGTATTTTACCGGAGTCACCTAGTGCAG”, which binding signal is on record?
A: 9130 fluorescence intensity (a.u.)

Q: “ATCAAGCTTTCCATTCTATTTCATTTGTACTCCACCTGTTCGGAGTCACCTAGTGCAG” was tested. Which binding signal did it give?
A: 11500 fluorescence intensity (a.u.)

Q: How did the binding signal turn out when “CCTCGCCAGTTCTGTTCAGCCGCAGATCTCCATCCCGCCACGGAGTCACCTAGTGCAG” was run?
A: 8650 fluorescence intensity (a.u.)

Q: “CTAGTCCCGTCGTCCGTGACCGTGTGCCTTTGCCTTTCCGCGGAGTCACCTAGTGCAG” was tested. Which binding signal did it give?
A: 8330 fluorescence intensity (a.u.)

Q: Which binding signal does the source give for “TATATATATATATATATATATATATATATATGGTGGTGTTCGGAGTCACCTAGTGCAG” here?
A: 20500 fluorescence intensity (a.u.)

Q: Which binding signal does the source give for “TGTAAGTGTCTACGTTTGTACCGTGTCTTTTTTCTAAAAACGGAGTCACCTAGTGCAG” here?
A: 10300 fluorescence intensity (a.u.)

Q: How did the binding signal turn out when “CCGTACCACCCCAAGATATTTCACGATATTTTCACGCATACGGAGTCACCTAGTGCAG” was run?
A: 8570 fluorescence intensity (a.u.)

Q: Which binding signal does the source give for “ATATACTGCTCCATCTCGTCGCTCGTCTCTCGCGTTAACCCGGAGTCACCTAGTGCAG” here?
A: 8310 fluorescence intensity (a.u.)

Q: Which binding signal does the source give for “CGTCGTGGTCAGAATAAAGTCAAATAATAGCTTTGATTTTCGGAGTCACCTAGTGCAG” here?
A: 9080 fluorescence intensity (a.u.)

Q: How did the binding signal turn out when “CTGGTCGCGTTTGGGATCGCCTCTCAATCTCTCATGTTAGCGGAGTCACCTAGTGCAG” was run?
A: 8620 fluorescence intensity (a.u.)

Q: For “TTTATAAGTTGAGAGATGTCATATGTCTGATTTTCCGGTTCGGAGTCACCTAGTGCAG”, which binding signal is on record?
A: 8570 fluorescence intensity (a.u.)

Q: With “CTAGATATCCCTTGTTTGTGTGTATGATGTATGCACTCCACGGAGTCACCTAGTGCAG” as the sequence, how does the binding signal read?
A: 8980 fluorescence intensity (a.u.)

Q: For “CCTATTATATCTTACTTGTTTGACCCTATTATGTCATACCCGGAGTCACCTAGTGCAG”, which binding signal is on record?
A: 11800 fluorescence intensity (a.u.)

Q: With “GTGCTTATTTGATGTGGCATTTGGGCCTTGGTTTAACCGTCGGAGTCACCTAGTGCAG” as the sequence, how does the binding signal read?
A: 8400 fluorescence intensity (a.u.)

Q: “AGCGCTGCACAAAATTTGCTCTGTTTCCTCTGTTCTGCGACGGAGTCACCTAGTGCAG” was tested. Which binding signal did it give?
A: 8140 fluorescence intensity (a.u.)

Q: Which binding signal does the source give for “GCATTTTTAAGCGTGGCGTGATCCGTGTTCTGTTCTTCTTCGGAGTCACCTAGTGCAG” here?
A: 10700 fluorescence intensity (a.u.)

Q: With “CACTAAAATTAGAGGTATCTTTTTCTTCCAGTTTAATGTACGGAGTCACCTAGTGCAG” as the sequence, how does the binding signal read?
A: 9510 fluorescence intensity (a.u.)

Q: For “GCAATATGCTATATGTGTGGTAGATATTTTTGTTGTCTTTCGGAGTCACCTAGTGCAG”, which binding signal is on record?
A: 10600 fluorescence intensity (a.u.)

Q: “ATAGATGGCACTCGCGCCTCGCCTCTCTGCTTCCGCGCCCCGGAGTCACCTAGTGCAG” was tested. Which binding signal did it give?
A: 11500 fluorescence intensity (a.u.)

Q: How did the binding signal turn out when “AACGTTAGACAAAAAGTCAACGGCGTCATACATTAAATACCGGAGTCACCTAGTGCAG” was run?
A: 9060 fluorescence intensity (a.u.)

Q: “GAGCCACGATCGCCCTCTACTTTCTGCATTCCTCAATCTTCGGAGTCACCTAGTGCAG” was tested. Which binding signal did it give?
A: 11400 fluorescence intensity (a.u.)

Q: How did the binding signal turn out when “ATGGTTCTTTTTGCACAGCTCTAGATTCACTATGTTTTGTCGGAGTCACCTAGTGCAG” was run?
A: 8750 fluorescence intensity (a.u.)

Q: With “AGGTGAGGTGGTCGTTTTTCTCGTTATCCAAACTAGTATTCGGAGTCACCTAGTGCAG” as the sequence, how does the binding signal read?
A: 11500 fluorescence intensity (a.u.)

Q: How did the binding signal turn out when “TATTTGTTTTTGGTCAGTTCGTGTATGATGTGATCACGACCGGAGTCACCTAGTGCAG” was run?
A: 8570 fluorescence intensity (a.u.)

Q: “ACGCCATCGCGTCGCGTCATTCTTCCAATCGAGAACTCTTCGGAGTCACCTAGTGCAG” was tested. Which binding signal did it give?
A: 10400 fluorescence intensity (a.u.)

Q: How did the binding signal turn out when “CCGGGTGGAAAGCCATTATTATTGACTTGTTCCGTTCTTCCGGAGTCACCTAGTGCAG” was run?
A: 9780 fluorescence intensity (a.u.)

Q: How did the binding signal turn out when “ATTGTTCGTCGAACTTTATCATATTATTAATCATCATATACGGAGTCACCTAGTGCAG” was run?
A: 8960 fluorescence intensity (a.u.)

Q: For “TACATTTTTTCTCTAACATATCATCCCTATTCCCCTAAAACGGAGTCACCTAGTGCAG”, which binding signal is on record?
A: 8540 fluorescence intensity (a.u.)
